# According to the supplement of paper PMC6279402:
# ± gives the standard deviation of the averaged measurements. The entries are a selection whose mix differs from that of the whole data set.
# System: A549
# Assay: relative viability (normalised to negative control = 1, bortezomib = 0) (fraction); higher = less cytotoxic
# Conditions: inflammatory serum-free RHB-A with cytokines + LPS, 5 d + 24 h CellTiter-Blue
# Description: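 A549 KRAS-mutant NSCLC cells, pre-treated 5 µM GSK126 or vehicle (DMSO), were seeded at 250 cells/well in 384-well plates in serum-free RHB-A medium with inflammatory cytokines/LPS and treated with Selleck kinase inhibitor and NCI oncology compounds at 30 or 300 nM in triplicate, refreshed at 48 h. Viability was read by CellTiter-Blue after 5 d plus 24 h and normalised per plate with cellHTS2 (mean of bortezomib positive control = 0, mean of negative control = 1).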
structure (smiles),measurement,setting,value
Cc1ccccc1-n1c(Cn2nc(-c3cccc(O)c3)c3c(N)ncnc32)nc2cccc(C)c2c1=O,relative viability,"compound 30 nM, GSK126 pretreatment: 5 uM GSK126",0.914 ± 0.15
same,relative viability,"compound 30 nM, GSK126 pretreatment: none (vehicle)",0.937 ± 0.14
same,relative viability,"compound 300 nM, GSK126 pretreatment: 5 uM GSK126",0.96 ± 0.044
same,relative viability,"compound 300 nM, GSK126 pretreatment: none (vehicle)",0.929 ± 0.056
